Measurements: US20170000866A1, “METHOD FOR EMULSIFYING A TRIEPITOPE PEPTIDE WITH MONTANIDE AND KITS FOR PERFORMING THE SAME” (VAXON BIOTECH, priority 2013, published 2017)
Not every detail of the peptide structures is certain; ends, links or a residue may be inferred. For part of these data: At least one read-out could not be matched to a standard name with certainty. Ends that are not written are not given here.

How the values were obtained:
[1] = Vx006 solubilisation in solvents for injection; format: physicochemical
Procedure: For vaccinating a patient, 1 ml of solvent is added on the lyocake to resuspend the peptide, 0.7 ml of peptide in solution is then loaded in a silicone free syringe and 0.7 ml of MONTANIDE ISA51VG in a second syringe. Both syringes are then connected to the I-connector for the emulsification protocol.
According to SEPPIC recommendations, to the fact that the emulsion is performed for human administration (preventing the use of solvents as DMSO etc.), results presented in Example 1 above and solubility prediction, Vx006 was initially diluted in saline buffer. Two saline solvents were tested, NaCl 0.9% and PBS. […] Moreover, the addition of several solvents developed by Seppic and compatible with injection in humans and emulsion with MONTANIDE were tested during the Vx006 manufacturing development.
The vial can be gently agitated to accelerate the dissolution, if necessary. The dissolution can also be performed at cold temperature (0-10° C.).

[2] = test system: native epitopes TERT988, HER-2/neu402, MAGE-A248G9 and MAGE-A248D9; conditions: compared with mixture of the three peptides and other epitope orders; cited from earlier work

## YLQVNSLQTVYLEYRQVPVYLEEITGYL [Vx006]
[1]; in NaCl 0.9% saline
  Solubilisation / appearance of solution: cloudy, the solubilisation was not complete
[1]; in NaCl 0.9% saline, after a few minutes
  Gel formation: a gel was formed
[1]; in PBS
  Solubilisation / appearance of solution: cloudy, the solubilisation was not complete
[1]; in PBS, after a few minutes
  Gel formation: a gel was formed
[1]; in water for injection
  Appearance of solution: totally clear
  Gel formation: no gel formation was observed
[1]; pure water 1 to 5 ml, room temperature (15-25° C.)
  Time until full dissolution of lyocake: 10 seconds to a few minutes
[1]; several solvents developed by Seppic, compatible with injection in humans
  Effect of added solvents on solubilisation: None of these solvents had any impact
[2]
  CTL response against native epitopes: elicits a polyspecific CTL response
